# According to the supplement of paper PMC4683952:
# Structures can show the parent of a compound that is named as a salt. Some of the results follow. Cut-off read from the data, not from the text of the source: active = 2.5 or more and inactive = the rest. This data set is noisy: repeats of one test often differ as much as different tests do.
# Tested on: Lgr5 (MarsCy1-Lgr5-EGFP, U2OS)
# Assay: cell-surface Lgr5 expression (SCi1 fluorescence, background-subtracted) relative to WT control (fold of WT control); higher = more Lgr5 at the plasma membrane
# Conditions: U2OS MarsCy1-Lgr5-EGFP stable; treatment time: overnight; library: Prestwick; 20 µM
row,SMILES,cell-surface Lgr5 expression
1,"NCC(O)c1ccc(O)cc1 (racemic) [(+,-)-Octopamine hydrochloride]",inactive: 1.95
2,CN1[C@@H]2CC[C@H]1C[C@@H](OC1c3ccccc3CCc3ccccc31)C2 [Deptropine citrate],inactive: 1.36
3,COc1ccc2c3c([nH]c2c1)C(C)=NCC3 [Harmaline hydrochloride dihydrate],inactive: 1.51
4,C[C@@H]1O[C@@H](O[C@H]2C[C@@H](O)[C@]3(CO)[C@H]4[C@H](O)C[C@]5(C)[C@@H](C6=CC(=O)OC6)CC[C@]5(O)[C@@H]4CC[C@]3(O)C2)[C@H](O)[C@H](O)[C@H]1O [Strophantine octahydrate],inactive: -0.0403
5,CC[C@@]1([C@@H]2O[C@@H]([C@H]3O[C@@](O)(CO)[C@H](C)C[C@@H]3C)C[C@@H]2C)CC[C@H]([C@]2(C)CC[C@]3(C[C@H](O)[C@@H](C)[C@@H]([C@@H](C)[C@@H](OC)[C@H](C)C(=O)O)O3)O2)O1 [Monensin sodium salt],inactive: 1.25
6,"CCC1(c2ccc(N)cc2)CCC(=O)NC1=O (configuration not stated) [Glutethimide, para-amino]",inactive: 1.1
7,CCn1cc(C(=O)O)c(=O)c2cc3c(cc21)OCO3 [Oxolinic acid],inactive: 1.2
8,C[C@]12CC[C@H](O)C[C@@H]1CC[C@@H]1[C@@H]2CC[C@]2(C)C(=O)CC[C@@H]12 [Epiandrosterone],inactive: 0.636
9,CN(C)C(=O)Oc1cc(OC(=O)N(C)C)cc(C(O)CNC(C)(C)C)c1 (configuration not stated) [Bambuterol hydrochloride],inactive: 1.36
10,CCN1C[C@]2(COC)[C@H](O)C[C@H](OC)[C@@]34[C@@H]5C[C@@]6(O)[C@H](OC(=O)c7ccccc7)[C@@H]5[C@@](OC(C)=O)([C@@H]([C@H](OC)[C@H]23)[C@@H]14)[C@@H](O)[C@@H]6OC [Aconitine],inactive: 1.89
11,O=[N+]([O-])c1cc([As](=O)(O)O)ccc1O [Roxarsone],inactive: 1.07
12,c1cncc(C2=NCCC2)c1 [Myosmine],inactive: 2.48
13,Cc1nccc2c1[nH]c1ccccc12 [Harmane hydrochloride],inactive: 1.57
14,Cc1c2ccncc2c(C)c2c1[nH]c1ccccc12 [Ellipticine],inactive: 1.67
15,CC(=O)OCC(=O)[C@H]1CC[C@H]2[C@@H]3CC[C@H]4C[C@H](O)CC[C@]4(C)[C@H]3C(=O)C[C@]12C [Alfadolone acetate],inactive: 1.3
16,C=C[C@]12CN(C)[C@@H]3[C@H]4CO[C@H](C[C@H]41)[C@]1(C(=O)Nc4ccccc41)[C@@H]32 [Gelsemine],inactive: 1.85
17,C=C(C)[C@@H]1[C@H]2OC(=O)[C@@H]1[C@]1(O)C[C@H]3O[C@]34C(=O)O[C@H]2[C@]14C [Picrotoxinin],inactive: 2.06
18,CC(C)c1c(CN(C)C(C)Cc2ccccc2)n(C)n(-c2ccccc2)c1=O (configuration not stated) [Famprofazone],active: 3.19
19,CO[C@H](C)[C@](O)(C(=O)OCC1=CCN2CC[C@H](O)[C@@H]12)C(C)C [Heliotrine],inactive: 1.88
20,O=P1(NCCCl)OCCCN1CCCl (configuration not stated) [Ifosfamide],inactive: 1.98
21,NC(=O)CN1CCCC1=O [Piracetam],inactive: 2.2
22,COc1cc2c(cc1OC)C(C)NCC2 (configuration not stated),inactive: 1.97
23,Cc1cccc(C)c1NC1=NCCCS1 [Xylazine],inactive: 1.8
24,C[C@]12CC[C@H](O)C[C@H]1CC[C@@H]1[C@@H]2C[C@@H](O)[C@]2(C)[C@@H](C3=CC(=O)OC3)CC[C@]12O [Digoxigenin],inactive: 0.643

# For reference, 2 of the compounds above.
row,SMILES,cell-surface Lgr5 expression
12,c1cncc(C2=NCCC2)c1 [Myosmine],inactive: 2.48
13,Cc1nccc2c1[nH]c1ccccc12 [Harmane hydrochloride],inactive: 1.57

# Continued:

row,SMILES,cell-surface Lgr5 expression
1,CC(=O)NC1CCSC1=O (racemic) [N-Acetyl-DL-homocysteine Thiolactone],inactive: 1.65
2,CC(Cc1ccccc1)NCCC(c1ccccc1)c1ccccc1 (configuration not stated) [Prenylamine lactate],inactive: 2.34
3,CNCC(O)c1ccc(O)c(OC)c1 (stereo not drawn) [Metanephrine hydrochloride DL],inactive: 1.2
4,Clc1ccc(C(OCCN2CCCCC2)c2ccccc2)cc1 (configuration not stated) [Cloperastine hydrochloride],inactive: 1.59
5,COc1cc2c(c(OC)c1OC)-c1ccc(O)c(=O)cc1[C@@H](N)CC2 [Trimethylcolchicinic acid],inactive: 1.62
6,COc1ccc2c(c1)[nH]c1c(C)nccc12 [Harmine hydrochloride],inactive: 1
7,CN1[C@@H](C[C@@H](O)c2ccccc2)CCC[C@H]1C[C@H](O)c1ccccc1 [Lobelanidine hydrochloride],inactive: 2.27
8,COc1ccc(C[C@H]2NC[C@H](O)[C@H]2OC(C)=O)cc1 [Anisomycin],inactive: -0.248
9,NCCc1c[nH]c2ccc(O)cc12 [Serotonin hydrochloride],inactive: 2.09
10,COc1cc([C@@H]2c3cc4c(cc3[C@H](O)[C@H]3COC(=O)[C@H]23)OCO4)cc(OC)c1OC [Podophyllotoxin],active: 3.24
11,CC[C@H]1CN2CCc3cc(OC)c(OC)cc3[C@@H]2C[C@@H]1C[C@H]1NCCc2cc(OC)c(OC)cc21 [Emetine dihydrochloride],inactive: 0.51
12,CCC1(c2cccc(O)c2)CCCCN(C)C1 (configuration not stated) [Meptazinol hydrochloride],inactive: 1.59
13,C[C@@H]1CC[C@H]2[C@@H](C)C(=O)O[C@@H]3O[C@@]4(C)CC[C@@H]1[C@]32OO4 [Artemisinin],inactive: 1.87
14,CS(=N)(=O)CC[C@H](N)C(=O)O (some centres not stated) [Methionine sulfoximine (L)],inactive: 1.8
15,CC[C@H]1[C@@H]2C[C@H]3[C@@H]4N(C)c5ccccc5[C@]45C[C@@H]([C@@H]2[C@H]5O)N3[C@@H]1O [Ajmaline],inactive: 1.21
16,CCNC1(c2cccs2)CCCCC1=O (configuration not stated) [Tiletamine hydrochloride],inactive: 1.09
17,CCN1C[C@]2(COC)CC[C@H](O)[C@@]34C5C[C@@H]6[C@@H](OC)C[C@](O)(C(CC23)C14)C5[C@H]6OC(C)=O (some centres not stated) [Condelphine],inactive: 1.58
18,CO[C@]12C[C@@H](COC(=O)c3cncc(Br)c3)CN(C)[C@@H]1Cc1cn(C)c3cccc2c13 [Nicergoline],inactive: 1.21
19,COC1=C[C@@H]2C3=C([C@@H]2C1=O)[C@@H](NC(C)=O)CCc1cc(OC)c(OC)c(OC)c13 [Lumicolchicine gamma],inactive: 0.0414
20,"CC(=O)OCC1=C(C(=O)O)N2C(=O)[C@@H](N)[C@H]2SC1 [Cephalosporanic acid, 7-amino]",inactive: 1.73
21,C[C@H]1C(=O)O[C@@H]2CCN3CC=C(COC(=O)[C@](C)(O)[C@]1(C)O)[C@H]23 [Monocrotaline],inactive: 1.53
22,C[C@@]12N[C@@H](Cc3ccccc31)c1ccccc12 [(-)-MK 801 hydrogen maleate],inactive: 2.28
23,C[N+]12CCC(CC1)C(OC(=O)C(O)(c1ccccc1)c1ccccc1)C2 (configuration not stated) [Clidinium bromide],inactive: 2.34

# Some of these compounds in order of formula weight, ascending:
row,SMILES,cell-surface Lgr5 expression
1,CC(=O)NC1CCSC1=O (racemic) [N-Acetyl-DL-homocysteine Thiolactone],inactive: 1.65
8,COc1ccc(C[C@H]2NC[C@H](O)[C@H]2OC(C)=O)cc1 [Anisomycin],inactive: -0.248
2,CC(Cc1ccccc1)NCCC(c1ccccc1)c1ccccc1 (configuration not stated) [Prenylamine lactate],inactive: 2.34
